From the supplement of paper PMC7877785
± gives the uncertainty stated by the source. The uncertainty is large for many entries.

Assay: self-splicing fitness, log relative to wild type (ln ratio); higher = more splicing; Tetrahymena group I intron in knt gene, E. coli kanamycin selection, DiMSum; sequences stand for … in CUCUCU…GGAGGGAAAAGUUAUCAGGCAUGCACCUGGUAGCUAGUCUUUAAACCAAUAGAUUGCAUCGGUUUAAAAGGCAAGACCGUCAAAUUGCGGGAAAGGGGUCAACAGCCGUUCAGUACCAAGUCUCAGGGGAAACUUUGAGAUGGCCUUGCAAAGGGUAUGGUAAUAAGCUGACGGACAUGGUCCUAACCACGCAGCCAAGUCCUAAGUCAACAGAUCUUCUGUUGAUAUGGAUGCAGUUCACAGACUAAAUGUCGGUCGGGGAAGAUGUAUUCUUCUCAUAAGAUAUAGUCGGACCUCUCCUUAAUGGGAGCUAGCGGAUGAAGUGAUGCAACACUGGAGCCGCUGGGAACUAAUUUGUAUGCGAAAGUAUAUUGAUUAGUUUUGGAGUACUCGUGGUCG
Method in brief: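 Library with all eight P1ex-region intron nucleotides randomised, intron inside the knt kanamycin-resistance gene on pET-22b(+), in E. coli BL21(DE3). Cells grew overnight at 37°C or 30°C on LB agar with or without 25 μg/mL kanamycin (plus 100 μg/mL carbenicillin, 50 μM IPTG, 0.2% rhamnose), in six replicate transformations. Pooled colonies were amplicon-sequenced on Illumina HiSeq 2500. DiMSum fitness is the error-weighted combination of wild-type-normalised replicate fold changes, kanamycin versus none.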

Row | Sequence | self-splicing fitness (ln) (30 °C) | self-splicing fitness (ln) (37 °C)
1 | CGCGAGCAAUAUUACGAGUG | -3.46 ± 0.31 | -1.78 ± 0.2
2 | CGGAAGCAAUAUUACGAAGU | -3.82 ± 0.6 | 
3 | AAGUAGCAAUAUUACGGCGG | -2.56 ± 0.17 | -0.842 ± 0.15
4 | GUCUAGCAAUAUUACGAUAG | -4.99 ± 0.58 | 
5 | UUGAAGCAAUAUUACGAUUG | -1.35 ± 0.088 | 0.272 ± 0.11
6 | UGAGAGCAAUAUUACGACCG | -1.67 ± 0.91 | 
7 | UGUUAGCAAUAUUACGGAGG |  | -2.17 ± 0.56
8 | AAGGAGCAAUAUUACGCACU | -1.53 ± 0.17 | -0.454 ± 0.18
9 | ACGCAGCAAUAUUACGCUCC | -2.36 ± 0.5 | 
10 | GCGGAGCAAUAUUACGGCCG | -1.4 ± 0.67 | -2.23 ± 1.1
11 | GCCCAGCAAUAUUACGGGCA | -2.35 ± 0.2 | -2.69 ± 0.21
12 | CCGAAGCAAUAUUACGCCGA | -3.43 ± 0.53 | -1.94 ± 0.65
13 | UCAAAGCAAUAUUACGGAGC | -3.72 ± 0.52 | 
14 | GUAUAGCAAUAUUACGGCCC | -0.402 ± 0.67 | 
15 | GAGUAGCAAUAUUACGCUCU | -3.76 ± 0.52 | -2.43 ± 0.55
16 | UGCUAGCAAUAUUACGAAGC | -2.5 ± 0.53 | -2.03 ± 0.56
17 | UUAGAGCAAUAUUACGCCAC | -2.87 ± 1.1 | -1.57 ± 0.54
18 | GCUAAGCAAUAUUACGCGCC | -3.7 ± 0.63 | -5.3 ± 1
19 | UCCAAGCAAUAUUACGUUAC | -4.16 ± 0.26 | -3.2 ± 0.32
20 | CACUAGCAAUAUUACGCAGG | -3.27 ± 0.12 | -1.26 ± 0.15
21 | GGCUAGCAAUAUUACGCCAU |  | -3.1 ± 0.6
22 | GCGGAGCAAUAUUACGCUAG |  | -2.17 ± 0.55
23 | AGCAAGCAAUAUUACGCUUC | -5.39 ± 0.5 | 
24 | UUGGAGCAAUAUUACGCAAU | -3.59 ± 0.61 | -2.54 ± 0.5

Row | Sequence | self-splicing fitness (ln) (30 °C) | self-splicing fitness (ln) (37 °C)
25 | CUGCAGCAAUAUUACGAUGC | -3.13 ± 0.24 | -1.92 ± 0.43
26 | CCCUAGCAAUAUUACGCCUA | -4.34 ± 0.72 | 
27 | GCGUAGCAAUAUUACGCUGC | -4.6 ± 0.72 | -1.98 ± 0.51
28 | CACUAGCAAUAUUACGAGCC | -2.66 ± 0.54 | 
29 | UUGUAGCAAUAUUACGGUAC | -4.6 ± 0.59 | -2.94 ± 1
30 | CGGUAGCAAUAUUACGGGCA | -1.75 ± 0.24 | -0.528 ± 0.2
31 | UAUUAGCAAUAUUACGGGGC | -3.78 ± 0.53 | -1.06 ± 0.55
32 | AGUGAGCAAUAUUACGGACA | -1.09 ± 0.2 | -1.5 ± 0.27
33 | AUUAAGCAAUAUUACGCGGC | -3.36 ± 0.53 | 
34 | ACUAAGCAAUAUUACGUUUG | -3.62 ± 0.18 | -2.22 ± 0.17
35 | UAGGAGCAAUAUUACGCCUC | -2.96 ± 0.75 | -1.29 ± 0.71
36 | GCGGAGCAAUAUUACGAAAG | -2.58 ± 0.57 | 
37 | CAGUAGCAAUAUUACGCCAC |  | -0.571 ± 0.61
38 | UGGGAGCAAUAUUACGCUCG | -3.24 ± 0.54 | 
39 | CUUCAGCAAUAUUACGAUCC |  | -3.3 ± 1
40 | UUCCAGCAAUAUUACGUACU | -4.8 ± 0.51 | 
41 | UCUGAGCAAUAUUACGCACC |  | -3.47 ± 1
42 | CCUUAGCAAUAUUACGCCAG | -4.12 ± 0.52 | 
43 | CCAUAGCAAUAUUACGACCA | -2.52 ± 0.46 | -2.29 ± 0.63
44 | CUAUAGCAAUAUUACGAUAG | -4.21 ± 0.59 | 
45 | AGAUAGCAAUAUUACGAAAC |  | -3.46 ± 0.6
46 | GAAGAGCAAUAUUACGGAGU | -3.07 ± 0.46 | -2.47 ± 0.45
47 | UAGCAGCAAUAUUACGACGG | -0.73 ± 0.09 | -0.313 ± 0.12
48 | UCGGAGCAAUAUUACGACAA |  | -0.777 ± 0.56

Row | Sequence | self-splicing fitness (ln) (30 °C) | self-splicing fitness (ln) (37 °C)
49 | GAUAAGCAAUAUUACGGAGA | -3.48 ± 0.36 | -2.78 ± 0.24
50 | AGCGAGCAAUAUUACGCCGC | -3.38 ± 0.5 | -2.59 ± 0.56
51 | CCUUAGCAAUAUUACGUCUC | -3.16 ± 0.52 | 
52 | CAGCAGCAAUAUUACGCCCG | 0.0522 ± 0.12 | 0.33 ± 0.12
53 | GGAGAGCAAUAUUACGAUUA | -3.87 ± 0.74 | 
54 | CGGGAGCAAUAUUACGCGCC | -3.28 ± 0.63 | -1.51 ± 0.43
55 | ACGGAGCAAUAUUACGACUC | -3.21 ± 1.1 | -3.45 ± 1
56 | UAGAAGCAAUAUUACGGAGC | -4.4 ± 0.72 | 
57 | UCAUAGCAAUAUUACGCGCU |  | -3.43 ± 0.6
58 | AGCGAGCAAUAUUACGCCAC |  | -1.39 ± 0.87
59 | UCAGAGCAAUAUUACGCCGU | -4.07 ± 0.72 | 
60 | GCUCAGCAAUAUUACGAUGG | -1.05 ± 0.11 | 0.368 ± 0.13
61 | UAGCAGCAAUAUUACGGUAC | -4.38 ± 0.72 | -3.41 ± 0.73
62 | GUGGAGCAAUAUUACGUGAA | -3.87 ± 0.62 | 
63 | GGGGAGCAAUAUUACGGUGC | -3.06 ± 0.75 | 
64 | CCUUAGCAAUAUUACGGAAA |  | -3.53 ± 0.6
65 | AAGAAGCAAUAUUACGCUUG | -1.23 ± 0.11 | -0.951 ± 0.14
66 | UUAUAGCAAUAUUACGAUCC | -2.95 ± 0.66 | 
67 | GGUAAGCAAUAUUACGUUAG | -3.15 ± 0.18 | -1.72 ± 0.19
68 | UCGUAGCAAUAUUACGCAGA |  | -1.79 ± 0.51
69 | CACGAGCAAUAUUACGUCCC |  | -1.67 ± 0.65
70 | CCUGAGCAAUAUUACGCAGC | -2.97 ± 0.75 | 
71 | UCCAAGCAAUAUUACGAUCG | -2.65 ± 0.19 | -3.06 ± 0.24
72 | GCUGAGCAAUAUUACGCUCC |  | -1.78 ± 1.2

Row | Sequence | self-splicing fitness (ln) (30 °C) | self-splicing fitness (ln) (37 °C)
73 | GGAGAGCAAUAUUACGUAAU | -3.75 ± 0.59 | 
74 | ACAGAGCAAUAUUACGAGUA | -2.78 ± 0.55 | 
75 | CGCCAGCAAUAUUACGUCCA | -2.91 ± 0.57 | 
76 | UAGGAGCAAUAUUACGUGCC | -3.81 ± 0.72 | 
77 | AGUCAGCAAUAUUACGGCCC | -0.436 ± 0.12 | -0.0813 ± 0.18
78 | GUCGAGCAAUAUUACGCUCC | -2.72 ± 0.51 | -0.64 ± 0.65
79 | CCAUAGCAAUAUUACGAAUU | -3.3 ± 0.23 | -2.51 ± 0.39
80 | ACUGAGCAAUAUUACGCAAC |  | -3.64 ± 1
81 | AUCGAGCAAUAUUACGGUCG |  | -3 ± 0.74
82 | GUGUAGCAAUAUUACGCAAC | -2.77 ± 0.78 | 
83 | AGGUAGCAAUAUUACGAGCC | -0.991 ± 0.021 | -0.862 ± 0.037
84 | UAGAAGCAAUAUUACGCUGC |  | -2.04 ± 0.81
85 | UGCCAGCAAUAUUACGUACU | 0.158 ± 0.14 | -1.19 ± 0.19
86 | UCUGAGCAAUAUUACGCAGA | -2.65 ± 0.52 | -1.91 ± 0.59
87 | GACGAGCAAUAUUACGUGAA | -4.91 ± 0.71 | 
88 | GCGUAGCAAUAUUACGGCUU | -1.21 ± 0.11 | -0.0921 ± 0.14
89 | GGUCAGCAAUAUUACGCCGA | -2.73 ± 0.55 | 
90 | UUGGAGCAAUAUUACGGCAC | -3.52 ± 1.1 | 
91 | CACGAGCAAUAUUACGGCCA | -3.31 ± 0.63 | 
92 | CACGAGCAAUAUUACGACGC | -3.57 ± 0.63 | -3.05 ± 0.74
93 | GCCUAGCAAUAUUACGCCAU | -3.33 ± 0.53 | 
94 | AUUGAGCAAUAUUACGAGAG | -3.8 ± 1 | 
95 | GUGAAGCAAUAUUACGCCAC |  | -2.03 ± 0.81
96 | CGCGAGCAAUAUUACGGCCA | -3.03 ± 0.62 | 

5 records drawn at random from the list so far:
Row | Sequence | self-splicing fitness (ln) (30 °C) | self-splicing fitness (ln) (37 °C)
76 | UAGGAGCAAUAUUACGUGCC | -3.81 ± 0.72 | 
86 | UCUGAGCAAUAUUACGCAGA | -2.65 ± 0.52 | -1.91 ± 0.59
88 | GCGUAGCAAUAUUACGGCUU | -1.21 ± 0.11 | -0.0921 ± 0.14
92 | CACGAGCAAUAUUACGACGC | -3.57 ± 0.63 | -3.05 ± 0.74
73 | GGAGAGCAAUAUUACGUAAU | -3.75 ± 0.59 | 

The list goes on.

Row | Sequence | self-splicing fitness (ln) (30 °C) | self-splicing fitness (ln) (37 °C)
97 | CGGCAGCAAUAUUACGACCG |  | -3.06 ± 0.6
98 | CGAGAGCAAUAUUACGAGAA | -2.18 ± 0.84 | 
99 | UGCGAGCAAUAUUACGAUUC |  | -1.93 ± 0.81
100 | AUUGAGCAAUAUUACGUCUC | -3.38 ± 0.53 | 
101 | UUCGAGCAAUAUUACGAGAC |  | -0.595 ± 1
102 | CUCCAGCAAUAUUACGGGCC |  | -3.53 ± 0.73
103 | UCGCAGCAAUAUUACGCGUC | -3.42 ± 0.16 | -1.8 ± 0.14
104 | GGCGAGCAAUAUUACGCCAU | -4.49 ± 1 | -3.45 ± 0.6
105 | GGGUAGCAAUAUUACGGGCC |  | -1.75 ± 0.81
106 | CAAUAGCAAUAUUACGCUCC | -2.7 ± 0.63 | 
107 | AUAGAGCAAUAUUACGUAAC |  | -1.39 ± 0.72
108 | CUUUAGCAAUAUUACGCGAC | -2.63 ± 0.51 | -2.42 ± 0.62
109 | CCGUAGCAAUAUUACGUGCU | -4.7 ± 0.59 | 
110 | UGUCAGCAAUAUUACGCGAU | -3.41 ± 0.4 | -2.2 ± 0.34
111 | GGCAAGCAAUAUUACGGGCC |  | -1.8 ± 0.66
112 | GGUUAGCAAUAUUACGCUAG |  | -0.522 ± 0.77
113 | CUUAAGCAAUAUUACGCAGG | -3.05 ± 0.21 | -2.96 ± 0.32
114 | GGAAAGCAAUAUUACGAACG | -0.51 ± 0.1 | -0.441 ± 0.12
115 | AAAGAGCAAUAUUACGUGGC |  | -1.84 ± 0.52
116 | GCCCAGCAAUAUUACGCUCG | -3.45 ± 0.24 | -2.34 ± 0.27
117 | AUCGAGCAAUAUUACGCAGC | -3.54 ± 1 | -0.517 ± 1
